Results published in paper PMC5731862.

Protein sequences, listed by entry. Tags and fused reporters are not part of them. Residues count along the entry.
UniProt O54967: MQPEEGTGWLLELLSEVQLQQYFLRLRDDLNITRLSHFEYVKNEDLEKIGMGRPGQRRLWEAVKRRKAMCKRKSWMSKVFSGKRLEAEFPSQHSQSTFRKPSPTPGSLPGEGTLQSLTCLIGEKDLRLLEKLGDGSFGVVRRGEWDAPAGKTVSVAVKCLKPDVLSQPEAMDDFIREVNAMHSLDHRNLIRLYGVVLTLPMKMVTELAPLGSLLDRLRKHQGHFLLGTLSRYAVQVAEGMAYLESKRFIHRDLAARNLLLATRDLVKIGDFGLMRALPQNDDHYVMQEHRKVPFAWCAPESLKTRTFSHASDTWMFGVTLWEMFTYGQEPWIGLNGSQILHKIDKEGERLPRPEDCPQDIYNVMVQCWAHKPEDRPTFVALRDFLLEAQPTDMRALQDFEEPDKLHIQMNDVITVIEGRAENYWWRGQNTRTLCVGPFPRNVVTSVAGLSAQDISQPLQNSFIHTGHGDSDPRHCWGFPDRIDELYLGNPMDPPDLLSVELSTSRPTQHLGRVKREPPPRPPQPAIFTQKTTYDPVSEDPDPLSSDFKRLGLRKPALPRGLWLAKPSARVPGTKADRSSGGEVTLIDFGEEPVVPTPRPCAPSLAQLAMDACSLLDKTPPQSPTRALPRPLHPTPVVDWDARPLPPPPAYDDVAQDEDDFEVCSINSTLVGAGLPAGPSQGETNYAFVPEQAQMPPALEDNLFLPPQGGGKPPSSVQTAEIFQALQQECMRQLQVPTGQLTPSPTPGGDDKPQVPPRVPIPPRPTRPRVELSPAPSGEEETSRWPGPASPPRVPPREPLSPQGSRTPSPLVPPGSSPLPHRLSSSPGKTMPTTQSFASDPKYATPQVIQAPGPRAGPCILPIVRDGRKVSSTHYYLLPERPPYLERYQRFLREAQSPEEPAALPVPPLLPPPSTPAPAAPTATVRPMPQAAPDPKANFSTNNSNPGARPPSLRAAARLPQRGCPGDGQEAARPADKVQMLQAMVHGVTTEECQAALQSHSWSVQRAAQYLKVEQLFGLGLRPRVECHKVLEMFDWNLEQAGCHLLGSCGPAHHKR
UniProt P11798: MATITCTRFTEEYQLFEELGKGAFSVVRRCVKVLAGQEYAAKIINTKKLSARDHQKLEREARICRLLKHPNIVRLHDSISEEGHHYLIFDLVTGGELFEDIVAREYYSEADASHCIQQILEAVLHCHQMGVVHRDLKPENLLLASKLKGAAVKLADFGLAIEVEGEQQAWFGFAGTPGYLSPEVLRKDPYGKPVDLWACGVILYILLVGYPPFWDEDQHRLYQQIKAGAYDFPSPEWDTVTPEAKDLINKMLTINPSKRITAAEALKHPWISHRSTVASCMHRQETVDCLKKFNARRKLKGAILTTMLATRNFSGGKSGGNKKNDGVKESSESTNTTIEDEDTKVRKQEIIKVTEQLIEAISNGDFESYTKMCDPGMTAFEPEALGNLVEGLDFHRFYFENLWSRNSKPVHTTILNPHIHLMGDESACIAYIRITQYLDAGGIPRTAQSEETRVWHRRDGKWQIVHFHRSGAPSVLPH
UniProt P13595, residues 20-1115: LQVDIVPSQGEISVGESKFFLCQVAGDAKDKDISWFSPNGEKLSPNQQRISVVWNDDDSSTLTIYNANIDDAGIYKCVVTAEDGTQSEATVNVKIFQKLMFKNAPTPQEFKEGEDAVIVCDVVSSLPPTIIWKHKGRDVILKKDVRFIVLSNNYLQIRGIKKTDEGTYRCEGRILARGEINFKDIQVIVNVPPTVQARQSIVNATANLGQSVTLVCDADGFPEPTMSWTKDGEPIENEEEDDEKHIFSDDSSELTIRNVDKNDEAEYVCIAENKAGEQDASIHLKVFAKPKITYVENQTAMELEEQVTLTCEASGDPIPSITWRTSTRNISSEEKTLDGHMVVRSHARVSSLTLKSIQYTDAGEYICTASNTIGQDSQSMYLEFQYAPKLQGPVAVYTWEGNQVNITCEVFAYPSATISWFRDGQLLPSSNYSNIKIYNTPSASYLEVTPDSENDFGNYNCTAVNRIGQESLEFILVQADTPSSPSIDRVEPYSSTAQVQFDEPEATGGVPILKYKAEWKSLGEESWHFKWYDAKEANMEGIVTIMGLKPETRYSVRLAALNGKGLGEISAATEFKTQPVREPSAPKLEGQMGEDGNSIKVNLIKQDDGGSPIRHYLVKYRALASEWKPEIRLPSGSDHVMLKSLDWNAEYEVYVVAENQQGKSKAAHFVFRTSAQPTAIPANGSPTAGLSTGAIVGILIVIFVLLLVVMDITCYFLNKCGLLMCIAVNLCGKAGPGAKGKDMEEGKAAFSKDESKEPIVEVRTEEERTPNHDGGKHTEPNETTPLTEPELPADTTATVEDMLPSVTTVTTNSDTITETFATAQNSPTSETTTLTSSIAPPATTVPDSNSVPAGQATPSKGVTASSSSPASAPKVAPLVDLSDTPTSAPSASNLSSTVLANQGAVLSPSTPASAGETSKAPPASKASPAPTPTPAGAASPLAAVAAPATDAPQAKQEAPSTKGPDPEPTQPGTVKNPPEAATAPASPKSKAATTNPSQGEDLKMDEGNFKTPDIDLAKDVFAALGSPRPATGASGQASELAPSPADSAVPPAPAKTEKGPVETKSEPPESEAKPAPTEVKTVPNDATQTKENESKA
UniProt P27546: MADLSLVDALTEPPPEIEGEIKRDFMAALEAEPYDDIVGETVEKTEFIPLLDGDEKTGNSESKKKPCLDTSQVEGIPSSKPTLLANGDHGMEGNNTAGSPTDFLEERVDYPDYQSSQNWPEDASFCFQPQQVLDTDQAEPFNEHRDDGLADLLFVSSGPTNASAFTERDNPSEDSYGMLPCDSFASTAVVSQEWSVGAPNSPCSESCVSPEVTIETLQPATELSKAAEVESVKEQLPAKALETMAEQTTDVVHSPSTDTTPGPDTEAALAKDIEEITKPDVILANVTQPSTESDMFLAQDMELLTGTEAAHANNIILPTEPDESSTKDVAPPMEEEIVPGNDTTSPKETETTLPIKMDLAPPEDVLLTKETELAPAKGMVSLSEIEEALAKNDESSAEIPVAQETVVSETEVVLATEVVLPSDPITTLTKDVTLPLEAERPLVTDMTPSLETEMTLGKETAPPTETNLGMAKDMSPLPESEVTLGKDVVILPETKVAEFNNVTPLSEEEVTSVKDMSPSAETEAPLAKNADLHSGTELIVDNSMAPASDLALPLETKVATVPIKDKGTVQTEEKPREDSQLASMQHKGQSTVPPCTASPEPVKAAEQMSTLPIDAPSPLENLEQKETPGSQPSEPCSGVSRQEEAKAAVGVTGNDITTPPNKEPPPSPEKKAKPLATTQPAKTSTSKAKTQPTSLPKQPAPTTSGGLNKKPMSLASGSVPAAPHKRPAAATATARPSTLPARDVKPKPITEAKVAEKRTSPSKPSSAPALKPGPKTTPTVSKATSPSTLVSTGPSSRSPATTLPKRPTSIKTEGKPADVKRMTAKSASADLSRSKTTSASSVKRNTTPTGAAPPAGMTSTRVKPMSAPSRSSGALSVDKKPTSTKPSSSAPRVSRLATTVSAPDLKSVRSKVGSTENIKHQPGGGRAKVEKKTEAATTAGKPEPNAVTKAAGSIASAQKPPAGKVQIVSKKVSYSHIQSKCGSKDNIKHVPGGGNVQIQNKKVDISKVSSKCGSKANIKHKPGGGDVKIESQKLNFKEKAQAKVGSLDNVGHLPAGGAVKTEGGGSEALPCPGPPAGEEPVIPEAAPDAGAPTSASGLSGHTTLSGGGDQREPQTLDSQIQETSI
UniProt Q7TSJ2: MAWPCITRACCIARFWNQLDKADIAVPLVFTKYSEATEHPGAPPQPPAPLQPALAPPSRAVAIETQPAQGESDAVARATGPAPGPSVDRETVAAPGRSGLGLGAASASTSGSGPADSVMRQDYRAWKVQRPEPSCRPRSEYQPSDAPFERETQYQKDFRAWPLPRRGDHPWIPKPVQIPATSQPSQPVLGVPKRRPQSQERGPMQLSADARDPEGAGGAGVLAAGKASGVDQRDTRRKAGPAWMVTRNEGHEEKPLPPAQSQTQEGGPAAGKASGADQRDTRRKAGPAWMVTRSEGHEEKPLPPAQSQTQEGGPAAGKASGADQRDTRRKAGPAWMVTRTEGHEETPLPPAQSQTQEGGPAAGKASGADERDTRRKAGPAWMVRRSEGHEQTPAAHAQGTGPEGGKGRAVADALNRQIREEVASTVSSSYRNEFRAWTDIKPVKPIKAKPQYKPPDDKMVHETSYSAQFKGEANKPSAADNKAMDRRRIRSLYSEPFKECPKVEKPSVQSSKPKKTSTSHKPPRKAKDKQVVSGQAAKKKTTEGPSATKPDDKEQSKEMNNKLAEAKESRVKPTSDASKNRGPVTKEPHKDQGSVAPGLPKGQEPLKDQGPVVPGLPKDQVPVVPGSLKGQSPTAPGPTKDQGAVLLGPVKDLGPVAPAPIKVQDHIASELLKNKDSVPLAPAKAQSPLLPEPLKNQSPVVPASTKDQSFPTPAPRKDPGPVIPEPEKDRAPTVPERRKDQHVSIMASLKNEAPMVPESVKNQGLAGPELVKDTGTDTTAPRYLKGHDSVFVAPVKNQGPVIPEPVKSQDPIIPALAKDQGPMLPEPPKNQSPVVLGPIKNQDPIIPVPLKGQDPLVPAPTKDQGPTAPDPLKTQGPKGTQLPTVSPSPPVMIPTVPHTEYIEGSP

B1: SH3-containing grb2-like protein 3-interacting protein 1 (protein, UniProt Q8VD37 1-806)
chain: MMEGLKKRTRKAFGIRKKEKDTDSTGSPDRDGMQPSPHEPPYHSKAECAREGGKKASKKSNGAPNGFYAEIDWERYNSPELDEEGYSIRPEEPGSTKGKHFYSSSESEEEEESHKKFNIKIKPLQSKDVLKNAATVDELKASIGNIALSPSPVRKSPRRSPGAIKRNLSSEEVARPRRSTPTPELTSKKPLDDTLALAPLFGPPLESAFDEQKTEVLLDQPEIWGSGQPMNPSTESPELARPFPTGTPPPLPPKTVPATPPRTGSPLTVATGNDQAATEAKIEKLPSISDLDSIFGPVLSPKSVAVNTEEKWVHFSDASPEHVTPELTPREQVVTPPAASDIPADSPAPAPPGPTGSAGPPGPPGPRHVPSPLNLEEVQKKVAEQTFIKDDYLETLSSPKECGLGQRATPPPPPPPTYRTVVSSPGPGSGSGTGTTSGASSPARPATPLVPCSTTPPPPPPRPPSRPKLPPGKPGVGDVSRPFSPPIHSSSPPPIAPLARAESTSSISSTNSLSAATTPTVGSSRGPSPLTMGAQDTLPVAAAFTETVNAYFKGADPSKCIVKITGEMVLSFPAGITRHFANNPSPAALTFRVVNSSRLEHVLPNPQLLCCDNTQNDANTKEFWVNMPNLMTHLKKVSEQKPQATYYNVDMLKYQVSAQGIQSTPLNLAVNWRCEPASTDLRIDYKYNTDAMSTAVALNNVQFLVPIDGGVTKLQAVLPPAVWNAEQQRILWKIPDISQKSENGGVGSLLARFQLSEGPSKPSPLVVQFTSEGSTLSGCDIELVGAGYRFSLIKKRFAAGKYLADN
B2: neurofilament medium polypeptide (protein, UniProt P08553 1-848)
chain: MSYTLDSLGNPSAYRRVTETRSSFSRVSGSPSSGFRSQSWSRGSPSTVSSSYKRSALAPRLAYSSAMLSSAESSLDFSQSSSLLNGGSGGDYKLSRSNEKEQLQGLNDRFAGYIEKVHYLEQQNKEIEAEIQALRQKQASHAQLGDAYDQEIRELRATLEMVNHEKAQVQLDSDHLEEDIHRLKERFEEEARLRDDTEAAIRALRKDIEESSMVKVELDKKVQSLQDEVAFLRSNHEEEVADLLAQIQASHITVERKDYLKTDISTALKEIRSQLECHSDQNMHQAEEWFKCRYAKLTEAAEQNKEAIRSAKEEIAEYRRQLQSKSIELESVRGTKESLERQLSDIEERHNHDLSSYQDTIQQLENELRGTKWEMARHLREYQDLLNVKMALDIEIAAYRKLLEGEETRFSTFSGSITGPLYTHRQPSVTISSKIQKTKVEAPKLKVQHKFVEEIIEETKVEDEKSEMEETLTAIAEELAASAKEEKEEAEEKEEEPEAEKSPVKSPEAKEEEEEGEKEEEEEGQEEEEEEDEGVKSDQAEEGGSEKEGSSEKDEGEQEEEEGETEAEGEGEEAEAKEEKKIEGKVEEVAVKEEIKVEKPEKAKSPMPKSPVEEVKPKPEAKAGKGEQKEEEKVEEEKKEVTKESPKEEKVEKKEEKPKDVADKKKAESPVKEKAVEEVITISKSVKVSLEKDTKEEKPQPQEKVKEKAEEEGGSEEEGSDRSPQESKKEDIAINGEVEGKEEEEQETQEKGSGREEEKGVVTNGLDVSPAEEKKGEDSSDDKVVVTKKVEKITSEGGDGATKYITKSVTVTQKVEEHEETFEEKLVSTKKVEKVTSHAIVKEVTQGD
B3: peroxiredoxin 2 (enzyme, UniProt Q61171 1-198)
chain: MASGNAQIGKSAPDFTATAVVDGAFKEIKLSDYRGKYVVLFFYPLDFTFVCPTEIIAFSDHAEDFRKLGCEVLGVSVDSQFTHLAWINTPRKEGGLGPLNIPLLADVTKSLSQNYGVLKNDEGIAYRGLFIIDAKGVLRQITVNDLPVGRSVDEALRLVQAFQYTDEHGEVCPAGWKPGSDTIKPNVDDSKEYFSKHN
B4: precursor of dihydrolipoamide S-acetyltransferase (enzyme, UniProt Q8BMF4 86-642)
chain: SLPPHQKVPLPSLSPTMQAGTIARWEKKEGEKISEGDLIAEVETDKATVGFESLEECYMAKILVPEGTRDVPVGSIICITVEKPQDIEAFKNYTLDLAAAAAPQAAPAAAPAPAAAPAAPSASAPGSSYPTHMQIVLPALSPTMTMGTVQRWEKKVGEKLSEGDLLAEIETDKATIGFEVQEEGYLAKILVPEGTRDVPLGAPLCIIVEKQEDIAAFADYRPTEVTSLKPQAAPPAPPPVAAVPPTPQPVAPTPSAAPAGPKGRVFVSPLAKKLAAEKGIDLTQVKGTGPEGRIIKKDIDSFVPSKAAPAAAAAMAPPGPRVAPAPAGVFTDIPISNIRRVIAQRLMQSKQTIPHYYLSVDVNMGEVLLVRKELNKMLEGKGKISVNDFIIKASALACLKVPEANSSWMDTVIRQNHVVDVSVAVSTPAGLITPIVFNAHIKGLETIASDVVSLASKAREGKLQPHEFQGGTFTISNLGMFGIKNFSAIINPPQACILAIGASEDKLIPADNEKGFDVASVMSVTLSCDHRVVDGAVGAQWLAEFKKYLEKPITMLL
B5: peroxiredoxin 1 (enzyme, UniProt P35700 1-199)
chain: MSSGNAKIGYPAPNFKATAVMPDGQFKDISLSEYKGKYVVFFFYPLDFTFVCPTEIIAFSDRADEFKKLNCQVIGASVDSHFCHLAWINTPKKQGGLGPMNIPLISDPKRTIAQDYGVLKADEGISFRGLFIIDDKGILRQITINDLPVGRSVDEIIRLVQAFQFTDKHGEVCPAGWKPGSDTIKPDVNKSKEYFSKQK

Target: Ack1 (activated Cdc42-associated tyrosine kinase) (mouse (endogenous in brain)) (UniProt O54967)
Experiment: affinity purification with mass spectrometry; Ack1 immunoprecipitated from adult and P5 mouse brain homogenates (1% Triton X-100, 150 mM NaCl, HEPES pH 7.5) with a 1:1 mix of monoclonal and polyclonal Ack1 antibodies overnight at 4°C, protein G-sepharose; SDS-PAGE, band of about 100 to 130 KDa cut, trypsin, LC-MS/MS (first assays also MALDI-TOF)

binding	Molecule
binds	CAMKII-α (Calmodulin kinase II) (from UniProt P11798 1-478) (enzyme)
binds	NCAM 1 (from UniProt P13595 20-1115)
binds	Neurabin-2 (from UniProt Q6R891 1-817)
binds	SynGAP (from UniProt F6SEU4 1-1340)
binds	microtubule-associated protein MAP 4 (from UniProt P27546 1-1125)
binds	microtubule-associated protein MAP 6 (from UniProt Q7TSJ2 1-906)

Target: Ack1 (activated Cdc42-associated tyrosine kinase) (mouse (endogenous in brain)) (UniProt O54967)
Experiment: as above
Remark: another data set of the same source

binding	Molecule
binds	B1
binds	B2
binds	B3
binds	B4
binds	B5

No constants are given. Whether binding was seen depends on the method and setting. In cells and extracts the contact can be indirect. These calls come from enrichment with a bait or labelling near it, and not all partners need be listed.
